Here are results for 6 sequences from paper PMC9283540.

Data set [1] concerns the target TipsytheTRex repressor, selenomethionine (Mycobacteriophage TipsytheTRex (cluster A)) (UniProt A0A2D1GKF7). As to the kind of experiment: X-ray crystallography. The following applies: selenomethionine; recombinant protein; protein details: N-terminal His6 (pET28a).
Data set [2] deals with T1, TipsytheTRex immunity repressor (WT of study stock) (Mycobacteriophage TipsytheTRex (cluster A)) (UniProt A0A2D1GKF7). As to the kind of experiment: X-ray crystallography. The following applies: native; recombinant protein; protein details: N-terminal His6 (pET28a).
Data set [3] concerns the target T1, TipsytheTRex immunity repressor (WT of study stock) (Mycobacteriophage TipsytheTRex (cluster A)). Briefly: SEC-SAXS-MALS. The following applies: recombinant protein, protein details: N-terminal His6 (pET28a). (In general: In gel filtration, larger molecules generally elute earlier.)
Data set [4] has as its system TipsytheTRex repressor HTH domain + TipsytheTRex repressor Stoperator domain. As to the kind of experiment: EMSA. The note with it: the two domains mixed in trans, no specific binding; EMSA: 20 mM Tris pH 7.0, 25 mM NaCl, 1 mM DTT, 100 ug/mL BSA, 5% glycerol, 0.25 uM FAM-DNA, room temperature 30 min, 5% native gel in 1x TAE; recombinant protein; label: 3'-FAM on strand 2.

Data set [5] has as its target TipsytheTRex repressor R108Q (Mycobacteriophage TipsytheTRex (cluster A)) (UniProt A0A2D1GKF7). As to the kind of experiment: EMSA. The following applies: up to 5 uM, severe defect, similar to R108A; EMSA: 20 mM Tris pH 7.0, 25 mM NaCl, 1 mM DTT, 100 ug/mL BSA, 5% glycerol, 0.25 uM FAM-DNA, room temperature 30 min, 5% native gel in 1x TAE; recombinant protein; protein details: N-terminal His6 (pET28a); label: 3'-FAM on strand 2. (In general: In EMSA bound probe runs differently from free probe, usually more slowly.)

The target in data set [6] is TipsytheTRex repressor R108A (Mycobacteriophage TipsytheTRex (cluster A)) (UniProt A0A2D1GKF7). As to the kind of experiment: EMSA. The following applies: up to 5 uM, no specific complex; EMSA: 20 mM Tris pH 7.0, 25 mM NaCl, 1 mM DTT, 100 ug/mL BSA, 5% glycerol, 0.25 uM FAM-DNA, room temperature 30 min, 5% native gel in 1x TAE; recombinant protein; protein details: N-terminal His6 (pET28a); label: 3'-FAM on strand 2.

The target of data set [7] is TipsytheTRex repressor W50A (Mycobacteriophage TipsytheTRex (cluster A)) (UniProt A0A2D1GKF7). Briefly: EMSA. The note with it: up to 5 uM, small amount of specific complex, not quantified; EMSA: 20 mM Tris pH 7.0, 25 mM NaCl, 1 mM DTT, 100 ug/mL BSA, 5% glycerol, 0.25 uM FAM-DNA, room temperature 30 min, 5% native gel in 1x TAE; recombinant protein; protein details: N-terminal His6 (pET28a); label: 3'-FAM on strand 2.

In data set [8] the target is TipsytheTRex repressor K81A (Mycobacteriophage TipsytheTRex (cluster A)) (UniProt A0A2D1GKF7). Briefly: EMSA. The note with it: up to 5 uM, severe defect, similar to R108A; EMSA: 20 mM Tris pH 7.0, 25 mM NaCl, 1 mM DTT, 100 ug/mL BSA, 5% glycerol, 0.25 uM FAM-DNA, room temperature 30 min, 5% native gel in 1x TAE; recombinant protein; protein details: N-terminal His6 (pET28a); label: 3'-FAM on strand 2.

Data set [9] has as its target TipsytheTRex repressor R45A (Mycobacteriophage TipsytheTRex (cluster A)) (UniProt A0A2D1GKF7). Briefly: EMSA. The following applies: up to 5 uM, severe defect, similar to R108A; EMSA: 20 mM Tris pH 7.0, 25 mM NaCl, 1 mM DTT, 100 ug/mL BSA, 5% glycerol, 0.25 uM FAM-DNA, room temperature 30 min, 5% native gel in 1x TAE; recombinant protein; protein details: N-terminal His6 (pET28a); label: 3'-FAM on strand 2.

Data set [10] deals with TipsytheTRex repressor Stoperator domain (Mycobacteriophage TipsytheTRex (cluster A)) (UniProt A0A2D1GKF7). As to the kind of experiment: EMSA. The note with it: up to 25 uM, no specific binding; EMSA: 20 mM Tris pH 7.0, 25 mM NaCl, 1 mM DTT, 100 ug/mL BSA, 5% glycerol, 0.25 uM FAM-DNA, room temperature 30 min, 5% native gel in 1x TAE; recombinant protein; protein details: pET28a (NdeI/XhoI), nickel-purified; label: 3'-FAM on strand 2.

For data set [11], the target named is TipsytheTRex repressor HTH domain (Mycobacteriophage TipsytheTRex (cluster A)) (UniProt A0A2D1GKF7). Briefly: EMSA. The following applies: up to 25 uM, no specific binding; EMSA: 20 mM Tris pH 7.0, 25 mM NaCl, 1 mM DTT, 100 ug/mL BSA, 5% glycerol, 0.25 uM FAM-DNA, room temperature 30 min, 5% native gel in 1x TAE; recombinant protein; protein details: pET28a (NdeI/XhoI), nickel-purified; label: 3'-FAM on strand 2.

Data set [12] has as its target T1, TipsytheTRex immunity repressor (WT of study stock) (Mycobacteriophage TipsytheTRex (cluster A)). Briefly: EMSA. The note with it: EMSA: 20 mM Tris pH 7.0, 25 mM NaCl, 1 mM DTT, 100 ug/mL BSA, 5% glycerol, 0.25 uM FAM-DNA, room temperature 30 min, 5% native gel in 1x TAE; recombinant protein; protein details: N-terminal His6 (pET28a); label: 3'-FAM on strand 2.

Construct, isoform or probe ends are uncertain for at least one entry. For some assays here: No signal at the amounts used counts as a negative. For some assays here: The comparison behind a weaker result is the experiment's own reference, which may not be listed here.

For the sequence “TTTCGGTGGCTGTCAAGCGGG (double strand) [21-bp crystallization]”, the binding result in [1] and in data set [2] was “binds” throughout.
For “GGTGGCTGTCAAG (double strand) [13-bp SEC-SAXS-MALS]”, the binding result in [3] (no stable complex) was “no binding”.
As for “TGTTTCGGTGGCTGTCAAGCGGGC (double strand) [24-bp SEC-SAXS-MALS]”, the binding result in data set [3] (monomer:DNA complex) is recorded as “binds”.
On to “ACGGCCCGCTTGACAGCCACCGAAACATCC (double strand) [30-bp optimal]”, for which the binding result was “no binding” in data set [4]; “no binding” in data set [5]; “no binding” in [6]; “binds more weakly” in data set [7]; “no binding” in data set [8]; “no binding” in data set [9]. Further, the binding result in [10] and in data set [11] was “no binding” throughout.
As for “CTTGACAGCCACC (double strand) [13-bp consensus, FAM]”, in data set [12], the binding result is on record as “no binding”.
On the same count and under the same terms, next, “ACCCTGGAGAAATCCCCTAGCCCAGCCAGC (double strand) [30-bp random (no consensus)]”: “no binding”.
